US20200216906A1, “METHODS AND COMPOSITIONS RELATING TO THE DIAGNOSIS AND TREATMENT OF CANCER” (PRESIDENT AND FELLOWS OF HARVARD COLLEGE, priority 2015, published 2020)
Entries after “also recorded” stand apart in the source; their conditions may differ. At least one compound was matched to its structure with a doubt left.

Test system: Panc02.13 cells
Assay: 3D spheroid growth assay, Panc02.13 (GFP/parental) cells
Conditions: Hippo-YAP pathway active

CC(=O)Nc1cccc(-n2c(=O)n(C3CC3)c(=O)c3c(Nc4ccc(I)cc4F)n(C)c(=O)c(C)c32)c1 [trametinib]
Efficacy in inhibiting cell growth when the Hippo pathway was not inhibited: effective in preventing cancer cell growth independent of the state of Hippo-YAP signaling pathway activity; also recorded: efficacious in inhibiting cell growth
